# Experimental data taken from PubChem BioAssay AID488931 (Broad Institute, 2010).
# The source calls these results inconclusive, neither active nor inactive.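 The calls were made as follows: active = rising protection curve whose AC50 sits at or below ten times the top dose tested for that sample; inconclusive = flat response between 30 and 70 percent, or poor fit; inactive = the rest.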
# Assay: INS-1E mitochondrial potential rescue under cytokines – cell-based, JC-1 fluorescence ratio, dry powder, dose response (AID 488931)
# Conditions: INS-1E cytokine-induced mitochondrial depolarization, JC-1 ratio, 48 h; at 19.5 µM (top of the series)
smiles,measurement,value
COc1ccc(S(=O)(=O)N(C)C[C@@H]2Oc3c(NC(=O)NC(C)C)cccc3C(=O)N([C@@H](C)CO)C[C@H]2C)cc1,protection from depolarization,inconclusive: 6.3%
